These are yes or no findings as the source states them, for the method shown. In cells and extracts the contact can be indirect. These calls come from enrichment with a bait or labelling near it, and not all partners need be listed.

Protein sequences, listed by entry. Tags and fused reporters are not part of them. Residues count along the entry.
UniProt O77310, residues 25-1417: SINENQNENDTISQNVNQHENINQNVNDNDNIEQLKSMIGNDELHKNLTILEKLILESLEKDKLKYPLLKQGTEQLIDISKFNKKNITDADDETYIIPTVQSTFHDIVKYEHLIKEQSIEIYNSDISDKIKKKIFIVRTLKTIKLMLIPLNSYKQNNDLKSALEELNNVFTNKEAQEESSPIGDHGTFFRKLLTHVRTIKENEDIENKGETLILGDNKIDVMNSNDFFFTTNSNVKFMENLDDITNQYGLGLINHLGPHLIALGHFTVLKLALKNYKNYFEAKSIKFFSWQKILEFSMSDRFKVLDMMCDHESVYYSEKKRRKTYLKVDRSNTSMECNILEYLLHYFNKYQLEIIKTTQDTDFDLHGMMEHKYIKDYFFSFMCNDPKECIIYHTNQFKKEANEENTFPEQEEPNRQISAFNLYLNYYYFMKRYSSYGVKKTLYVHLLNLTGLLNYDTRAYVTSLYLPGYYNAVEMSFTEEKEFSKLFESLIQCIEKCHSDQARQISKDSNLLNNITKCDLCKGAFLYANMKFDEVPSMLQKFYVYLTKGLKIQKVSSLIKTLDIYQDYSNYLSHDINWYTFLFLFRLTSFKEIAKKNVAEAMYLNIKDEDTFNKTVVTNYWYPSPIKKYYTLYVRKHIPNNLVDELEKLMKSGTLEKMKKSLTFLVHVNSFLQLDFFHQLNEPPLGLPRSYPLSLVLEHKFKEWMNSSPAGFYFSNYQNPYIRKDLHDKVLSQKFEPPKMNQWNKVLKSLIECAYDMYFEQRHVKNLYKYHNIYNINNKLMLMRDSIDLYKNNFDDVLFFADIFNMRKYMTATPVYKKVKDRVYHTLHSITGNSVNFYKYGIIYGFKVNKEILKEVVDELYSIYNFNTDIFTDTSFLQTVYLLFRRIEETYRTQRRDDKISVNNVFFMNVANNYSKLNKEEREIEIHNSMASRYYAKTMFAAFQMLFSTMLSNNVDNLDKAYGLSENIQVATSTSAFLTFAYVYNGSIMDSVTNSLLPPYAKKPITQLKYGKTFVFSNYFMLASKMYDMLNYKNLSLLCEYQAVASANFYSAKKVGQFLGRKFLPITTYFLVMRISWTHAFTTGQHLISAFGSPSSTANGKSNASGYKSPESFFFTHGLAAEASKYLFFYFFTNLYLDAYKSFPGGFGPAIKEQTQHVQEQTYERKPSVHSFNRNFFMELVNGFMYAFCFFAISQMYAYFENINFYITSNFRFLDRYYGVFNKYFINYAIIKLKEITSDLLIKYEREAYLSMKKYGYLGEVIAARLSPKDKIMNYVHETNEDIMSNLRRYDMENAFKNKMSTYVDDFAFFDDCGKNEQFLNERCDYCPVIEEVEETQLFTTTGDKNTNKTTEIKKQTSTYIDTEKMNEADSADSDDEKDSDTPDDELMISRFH

Among the data in PMC7848174 are binding values, retold here.

Assay [1] concerns the target T1, high-molecular mass rhoptry protein 3 (PfRhopH3) (P. falciparum (endogenous in NF54 schizonts)) (UniProt Q8I395).
T1 sequence: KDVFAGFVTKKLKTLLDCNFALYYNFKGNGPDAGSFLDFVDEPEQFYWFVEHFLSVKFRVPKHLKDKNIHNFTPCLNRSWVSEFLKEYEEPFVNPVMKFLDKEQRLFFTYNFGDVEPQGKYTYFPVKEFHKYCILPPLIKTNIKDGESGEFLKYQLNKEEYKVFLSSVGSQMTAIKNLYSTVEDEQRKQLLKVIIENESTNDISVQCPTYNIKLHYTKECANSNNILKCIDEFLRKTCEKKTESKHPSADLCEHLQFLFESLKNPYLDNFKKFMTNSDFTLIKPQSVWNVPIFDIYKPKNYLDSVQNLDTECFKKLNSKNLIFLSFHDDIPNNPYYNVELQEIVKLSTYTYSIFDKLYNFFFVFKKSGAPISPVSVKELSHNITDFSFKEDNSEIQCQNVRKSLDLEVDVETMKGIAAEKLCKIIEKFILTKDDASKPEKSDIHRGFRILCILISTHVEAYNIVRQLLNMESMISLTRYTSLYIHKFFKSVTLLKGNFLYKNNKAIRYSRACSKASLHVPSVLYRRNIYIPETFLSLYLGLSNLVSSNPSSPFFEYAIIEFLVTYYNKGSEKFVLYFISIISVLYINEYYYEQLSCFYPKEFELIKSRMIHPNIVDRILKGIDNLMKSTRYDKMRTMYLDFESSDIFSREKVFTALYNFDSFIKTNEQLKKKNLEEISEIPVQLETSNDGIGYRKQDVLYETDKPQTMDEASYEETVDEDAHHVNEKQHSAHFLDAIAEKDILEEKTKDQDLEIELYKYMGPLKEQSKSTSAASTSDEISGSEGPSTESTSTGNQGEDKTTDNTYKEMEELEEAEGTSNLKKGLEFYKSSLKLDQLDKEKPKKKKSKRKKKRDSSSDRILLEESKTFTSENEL
The experiment in a line: affinity purification with mass spectrometry; late schizont lysate (50 mM Tris-HCl, 0.2 M NaCl, 5 mM EDTA, 0.2% NP-40, pH 7.4) passed over a monoclonal antibody-conjugated Formyl-Cellulofine column; eluate on 10% SDS-PAGE, bands excised, trypsin, LC-MS/MS.

Assay [2] has as its target T2, high-molecular mass rhoptry protein 2 (PfRhopH2) (P. falciparum (endogenous in NF54 schizonts)) (UniProt C0H571).
T2 sequence: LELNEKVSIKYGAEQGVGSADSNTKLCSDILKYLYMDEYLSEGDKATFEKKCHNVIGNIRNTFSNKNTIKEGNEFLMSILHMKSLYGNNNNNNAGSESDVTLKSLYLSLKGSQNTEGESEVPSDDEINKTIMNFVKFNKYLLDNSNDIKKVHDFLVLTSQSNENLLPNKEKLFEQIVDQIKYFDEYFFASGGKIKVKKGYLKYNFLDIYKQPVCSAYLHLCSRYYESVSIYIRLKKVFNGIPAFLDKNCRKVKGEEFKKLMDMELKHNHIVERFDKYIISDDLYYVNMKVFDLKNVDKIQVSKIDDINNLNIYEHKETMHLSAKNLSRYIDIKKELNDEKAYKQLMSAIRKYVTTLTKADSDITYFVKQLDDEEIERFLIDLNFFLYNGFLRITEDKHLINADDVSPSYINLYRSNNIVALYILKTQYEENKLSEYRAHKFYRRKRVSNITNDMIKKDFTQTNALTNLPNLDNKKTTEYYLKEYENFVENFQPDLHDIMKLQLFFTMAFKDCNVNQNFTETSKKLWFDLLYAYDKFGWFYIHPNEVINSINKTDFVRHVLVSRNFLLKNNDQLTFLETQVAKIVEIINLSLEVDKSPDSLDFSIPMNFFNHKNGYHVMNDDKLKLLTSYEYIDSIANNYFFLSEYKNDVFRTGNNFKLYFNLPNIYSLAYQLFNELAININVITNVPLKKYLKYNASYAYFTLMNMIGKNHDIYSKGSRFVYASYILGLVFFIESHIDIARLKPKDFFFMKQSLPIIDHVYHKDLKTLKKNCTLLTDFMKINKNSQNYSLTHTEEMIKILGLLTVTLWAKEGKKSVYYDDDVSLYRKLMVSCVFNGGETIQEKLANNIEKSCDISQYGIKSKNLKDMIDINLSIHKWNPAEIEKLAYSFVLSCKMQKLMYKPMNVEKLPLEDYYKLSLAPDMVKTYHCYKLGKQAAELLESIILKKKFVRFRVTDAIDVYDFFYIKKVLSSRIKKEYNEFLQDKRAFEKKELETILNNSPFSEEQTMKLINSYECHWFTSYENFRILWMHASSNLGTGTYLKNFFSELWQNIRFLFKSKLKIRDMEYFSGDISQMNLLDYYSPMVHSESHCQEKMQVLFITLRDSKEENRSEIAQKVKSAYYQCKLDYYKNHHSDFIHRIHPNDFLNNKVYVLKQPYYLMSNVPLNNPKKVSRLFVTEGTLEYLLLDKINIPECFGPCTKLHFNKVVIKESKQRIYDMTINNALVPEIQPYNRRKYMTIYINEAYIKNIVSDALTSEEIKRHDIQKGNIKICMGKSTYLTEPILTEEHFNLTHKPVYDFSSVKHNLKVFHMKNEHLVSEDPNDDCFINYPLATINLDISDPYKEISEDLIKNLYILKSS
Described as above.

As to “Clag3.1 (cytoadherence-linked asexual gene 3.1 protein, PfRhopH1/Clag) (from UniProt O77310 25-1417)”, the binding entry in assay [1] is reported as “binds”. Turning to “Clag9 (cytoadherence-linked asexual gene 9 protein, PfRhopH1/Clag)”, the binding result in assay [1] and in assay [2] was “binds” throughout.

B1: high-molecular mass rhoptry protein 3 (PfRhopH3) (protein, UniProt Q8I395 25-897)
chain: T1 sequence
On to B1, for which the binding result in assay [2] is on record as “binds”.
